Source: PMC11542072
No constants are given. Whether binding was seen depends on the method and setting. Binding seen in cells or lysates may run through a third protein. Some results given as binding are weak or reduced against the parent protein; the word gives no strength. Tags and fused reporters may be left off the sequences shown. Blank lines part the entries; values can stand above or below the binder they belong to.

Amino acid sequences for entries named in this document (tags omitted).
UniProt Q12756: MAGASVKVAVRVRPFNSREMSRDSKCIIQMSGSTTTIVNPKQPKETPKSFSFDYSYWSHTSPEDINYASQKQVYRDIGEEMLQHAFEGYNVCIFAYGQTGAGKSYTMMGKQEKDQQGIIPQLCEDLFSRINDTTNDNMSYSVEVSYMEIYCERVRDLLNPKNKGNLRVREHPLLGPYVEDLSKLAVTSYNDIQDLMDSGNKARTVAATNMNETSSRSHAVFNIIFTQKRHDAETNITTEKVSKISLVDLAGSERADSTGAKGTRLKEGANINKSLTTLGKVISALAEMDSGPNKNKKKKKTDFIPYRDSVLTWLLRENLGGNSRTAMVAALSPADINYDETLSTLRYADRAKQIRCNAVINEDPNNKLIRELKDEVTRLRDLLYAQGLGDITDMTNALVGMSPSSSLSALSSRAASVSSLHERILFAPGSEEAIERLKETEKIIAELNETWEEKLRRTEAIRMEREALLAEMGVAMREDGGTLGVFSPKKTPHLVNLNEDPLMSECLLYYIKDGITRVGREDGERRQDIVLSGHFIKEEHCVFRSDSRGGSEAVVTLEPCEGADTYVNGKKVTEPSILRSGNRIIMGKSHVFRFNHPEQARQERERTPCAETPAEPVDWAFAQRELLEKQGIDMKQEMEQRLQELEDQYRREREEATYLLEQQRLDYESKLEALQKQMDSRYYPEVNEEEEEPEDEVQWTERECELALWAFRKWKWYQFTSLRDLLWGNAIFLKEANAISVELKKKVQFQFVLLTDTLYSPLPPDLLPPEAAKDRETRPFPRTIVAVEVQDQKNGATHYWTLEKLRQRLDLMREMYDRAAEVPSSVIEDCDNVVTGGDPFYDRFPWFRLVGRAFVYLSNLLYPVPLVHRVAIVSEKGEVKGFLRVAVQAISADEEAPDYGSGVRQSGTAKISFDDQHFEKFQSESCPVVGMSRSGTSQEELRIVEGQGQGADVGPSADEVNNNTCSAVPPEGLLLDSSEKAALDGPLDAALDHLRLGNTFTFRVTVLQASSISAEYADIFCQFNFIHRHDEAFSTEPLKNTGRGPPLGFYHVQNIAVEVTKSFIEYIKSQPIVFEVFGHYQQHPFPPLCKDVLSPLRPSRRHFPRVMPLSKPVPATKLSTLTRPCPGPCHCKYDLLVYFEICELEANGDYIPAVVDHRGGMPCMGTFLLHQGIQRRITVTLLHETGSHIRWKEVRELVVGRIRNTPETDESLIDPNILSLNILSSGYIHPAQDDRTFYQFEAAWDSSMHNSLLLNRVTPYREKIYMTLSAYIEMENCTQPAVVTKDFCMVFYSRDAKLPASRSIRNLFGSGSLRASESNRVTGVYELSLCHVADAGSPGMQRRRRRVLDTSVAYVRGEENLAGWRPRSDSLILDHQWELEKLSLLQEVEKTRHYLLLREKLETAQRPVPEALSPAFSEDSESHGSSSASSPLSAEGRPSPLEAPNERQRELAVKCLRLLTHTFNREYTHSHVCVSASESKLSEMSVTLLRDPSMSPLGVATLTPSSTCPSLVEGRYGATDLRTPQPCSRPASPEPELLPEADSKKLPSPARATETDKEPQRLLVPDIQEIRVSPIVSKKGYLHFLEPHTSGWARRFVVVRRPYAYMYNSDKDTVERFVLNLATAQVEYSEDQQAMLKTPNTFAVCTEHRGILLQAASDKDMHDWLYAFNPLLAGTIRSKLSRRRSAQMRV

Tests used:
[1] = target: Kinesin-like protein (KIF1A), in HEK293T cells (human (endogenous in HEK293T, or cDNA of Gene ID 547)) (UniProt Q12756); test: co-IP; co-IP of KIF1A and OGT in HEK293T cells, Western blot
[2] = target: Kinesin-like protein (KIF1A) (human (endogenous in LNCaP-AI and LNCaP)) (UniProt Q12756); test: co-IP; co-IP of KIF1A and OGT in LNCaP and LNCaP-AI cells, Western blot; more abundant in LNCaP-AI than in LNCaP cells

binding [1]: binds
B1: O-linked N-acetylglucosamine transferase (OGT), in HEK293T cells (enzyme, UniProt O15294 1-1046)
chain: MASSVGNVADSTEPTKRMLSFQGLAELAHREYQAGDFEAAERHCMQLWRQEPDNTGVLLLLSSIHFQCRRLDRSAHFSTLAIKQNPLLAEAYSNLGNVYKERGQLQEAIEHYRHALRLKPDFIDGYINLAAALVAAGDMEGAVQAYVSALQYNPDLYCVRSDLGNLLKALGRLEEAKACYLKAIETQPNFAVAWSNLGCVFNAQGEIWLAIHHFEKAVTLDPNFLDAYINLGNVLKEARIFDRAVAAYLRALSLSPNHAVVHGNLACVYYEQGLIDLAIDTYRRAIELQPHFPDAYCNLANALKEKGSVAEAEDCYNTALRLCPTHADSLNNLANIKREQGNIEEAVRLYRKALEVFPEFAAAHSNLASVLQQQGKLQEALMHYKEAIRISPTFADAYSNMGNTLKEMQDVQGALQCYTRAIQINPAFADAHSNLASIHKDSGNIPEAIASYRTALKLKPDFPDAYCNLAHCLQIVCDWTDYDERMKKLVSIVADQLEKNRLPSVHPHHSMLYPLSHGFRKAIAERHGNLCLDKINVLHKPPYEHPKDLKLSDGRLRVGYVSSDFGNHPTSHLMQSIPGMHNPDKFEVFCYALSPDDGTNFRVKVMAEANHFIDLSQIPCNGKAADRIHQDGIHILVNMNGYTKGARNELFALRPAPIQAMWLGYPGTSGALFMDYIITDQETSPAEVAEQYSEKLAYMPHTFFIGDHANMFPHLKKKAVIDFKSNGHIYDNRIVLNGIDLKAFLDSLPDVKIVKMKCPDGGDNADSSNTALNMPVIPMNTIAEAVIEMINRGQIQITINGFSISNGLATTQINNKAATGEEVPRTIIVTTRSQYGLPEDAIVYCNFNQLYKIDPSTLQMWANILKRVPNSVLWLLRFPAVGEPNIQQYAQNMGLPQNRIIFSPVAPKEEHVRRGQLADVCLDTPLCNGHTTGMDVLWAGTPMVTMPGETLASRVAASQLTCLGCLELIAKNRQEYEDIAVKLGTDLEYLKKVRGKVWKQRISSPLFNTKQYTMELERLYLQMWEHYAAGNKPDHMIKPVEVTESA

binding [2]: binds
B2: O-linked N-acetylglucosamine transferase (OGT) (enzyme, UniProt O15294 1-1046)
chain: B1 chain
